Primary screen of a compound library

Amino acid sequences for entries named in this document (tags omitted).
UniProt P9WNZ1, whole entry: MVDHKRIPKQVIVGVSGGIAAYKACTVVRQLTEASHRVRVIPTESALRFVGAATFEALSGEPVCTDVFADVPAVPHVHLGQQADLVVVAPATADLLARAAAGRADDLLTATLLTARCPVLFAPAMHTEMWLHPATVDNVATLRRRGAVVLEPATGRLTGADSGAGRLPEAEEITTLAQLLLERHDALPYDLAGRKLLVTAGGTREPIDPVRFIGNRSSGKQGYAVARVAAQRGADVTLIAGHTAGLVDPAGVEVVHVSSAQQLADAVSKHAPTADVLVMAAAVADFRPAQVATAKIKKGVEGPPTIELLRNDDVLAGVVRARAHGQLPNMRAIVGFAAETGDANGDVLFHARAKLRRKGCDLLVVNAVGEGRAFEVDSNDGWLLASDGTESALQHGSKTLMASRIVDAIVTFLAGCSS

From ChEMBL document CHEMBL3988442, “University of Dundee, Small-Polar-MMV Screening Library” (2021).

Values are the deposited “Percent Effect”, in %.
The controls that fix the scale are not given in the record; negative values are as filed.
The compounds are a random part of those screened.
Two or more numbers in one place are separate tests of the same structure; such repeats can differ widely.
A dash means the value is not listed here; it may have been measured.

CoaBC: 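Coenzyme A biosynthesis protein CoaBC, Mycobacterium tuberculosis (UniProt P9WNZ1). Enzyme assay of CoaBC with a phosphate dye (Biomol Green) read at 650 nm. Compounds at 30 µM. Direction is inferred from only a few compounds that gave an IC50; most scored high, so higher reads as stronger inhibition. Most strong results did not repeat in a second test. About 67,000 compounds were tested under these conditions; 0.06% (about 40) showed 50% or more at least once.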
Leishmania in macrophages: 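Cell assay of Leishmania donovani living inside macrophages; the read-out is not stated. Concentration: 30 µM. Direction is inferred from retests: higher values go with stronger inhibition. About 69,000 compounds were tested under these conditions; 1.5% (about 1,000) showed 50% or more at least once.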

Cc1ccc(-c2ccc(C3CNCCO3)nc2)cc1.Cl (stereo not drawn) gave Leishmania in macrophages: 15.95% and 24.3%.
Cc1cc(CN2CCN(C(=O)NC(C)Cn3ccnc3)CC2)no1 (stereo not drawn) gave CoaBC: -3.457%; Leishmania in macrophages: 19.24%.
CC(C)NC(=O)C1CN(C(=O)Nc2cccc(F)c2)CC12CCOCC2 (stereo not drawn) gave CoaBC: -5.071%; Leishmania in macrophages: 7.929%.
CN(C(=O)CN1CCCC1Cc1ccccc1)c1ccccc1 (stereo not drawn) gave CoaBC: 9.524%; Leishmania in macrophages: -2.57%.
CCCN1CCc2nc(N3CCOCC3)nc(NC(C)C)c2C1 gave CoaBC: 1.607%; Leishmania in macrophages: 12.69%.
CCNC(=O)[C@@H]1C[C@@H](NC(=O)c2ccc(C#N)cc2)CN1CCCSC gave CoaBC: 5.008%; Leishmania in macrophages: -13.03%.
Cc1ccc2c(c1)CN(C(=O)c1cccnc1)C(CN(C)C)CO2.Cl (stereo not drawn) gave Leishmania in macrophages: -14.41%.
CCOCC(O)CN1CCN(C(=O)Cc2ccccc2C)CC1 (stereo not drawn) gave CoaBC: 0.266%; Leishmania in macrophages: 15.44%.
c1ccc(OCC2C[C@@H]3[C@@H](C2)OCCN3CC2CCOCC2)nc1 (stereo partly drawn) gave CoaBC: -2.927%.
O=C(CN(CC1CCC1)CC(F)(F)F)N1CCOCC1 gave CoaBC: 1.141%; Leishmania in macrophages: 25.72%.
CCCn1ccnc1CN1CCCC(O)(CN(C)C)CC1 (stereo not drawn) gave CoaBC: 3.169%; Leishmania in macrophages: 27.53%.
Cc1nn(-c2ncccn2)c2c1C(c1cnn(C)c1)SCC(=O)N2 (stereo not drawn) gave CoaBC: 3.788%; Leishmania in macrophages: 2.92%.
O=C(c1ccc2occc2c1)N1CCC(C(=O)O)(n2cccn2)CC1 gave CoaBC: 15.16%; Leishmania in macrophages: -15.72%.
COc1cccc(-c2nc(CNCCn3cccn3)cs2)c1 gave CoaBC: 2.85%; Leishmania in macrophages: 25.31%.
Fc1cnc(N2CCC3(CCCN(c4nncs4)C3)C2)nc1 (stereo not drawn) gave CoaBC: -0.8403%; Leishmania in macrophages: 7.386%.
Cc1ccc(NC2CCN(C(=O)c3cc[nH]n3)CC2)nn1 gave CoaBC: -2.926%; Leishmania in macrophages: -2.797%.
Cc1cc(=O)n(CC(=O)NCC2CCCO2)c(-c2cccc(Cl)c2)n1 (stereo not drawn) gave CoaBC: 10%; Leishmania in macrophages: -2.789%.
CC(C)NC1CCc2c(ccc(=O)n2CCN2CCOCC2)C1.O=C(O)C(F)(F)F.O=C(O)C(F)(F)F (stereo not drawn) gave Leishmania in macrophages: 17.56%.
CCNC(=O)[C@@H]1C[C@@H](N)CN1C(=O)c1cc2ccccc2[nH]1 gave CoaBC: -4.403%; Leishmania in macrophages: -15.35%.
CCn1cc(CNC(=O)CCc2nnc(-c3ccc(C)s3)o2)cn1 gave CoaBC: -0.4073%; Leishmania in macrophages: 1.43%.
CN(C)CCn1c2c(ccc1=O)CCN(C(=O)c1cccs1)CC2.O=C(O)C(F)(F)F gave Leishmania in macrophages: -0.7367%.
CC(C)NC(=O)N1C[C@@H](F)[C@@H](OCc2nc3ccccc3o2)C1 gave CoaBC: 11.26%; Leishmania in macrophages: 18.3%.
Cc1cc(C)n(Cc2cccc(C(=O)NCCSCC(C)(C)O)c2)n1 gave CoaBC: -0.2551%; Leishmania in macrophages: 22.96%.
C[C@@H]1CN(Cc2ccccn2)C[C@]12CCN(Cc1cccnc1)C2=O.O=C(O)C(F)(F)F.O=C(O)C(F)(F)F.O=C(O)C(F)(F)F gave Leishmania in macrophages: 11.56%.
CC(O)(CNC(=O)NCCc1ccc2c(c1)CCO2)c1ccccc1 (stereo not drawn) gave CoaBC: 4.206%; Leishmania in macrophages: 15.61%.
Cn1nccc1CCC(=O)N1CCC(c2cnccn2)CC1 gave CoaBC: 12.41%; Leishmania in macrophages: 25.45% and 19.61%.
Cc1cnc(N2CCCn3c(nnc3CN(C)C(C)C)C2)nc1 gave CoaBC: -0.9756%.
O=C(c1ccco1)N1CCN2C[C@H](Oc3cncnc3)C[C@H]2C1 gave CoaBC: -3.226%.
COc1cc(-c2cc(NC3CCCC3)nc3[nH]ccc23)nc(N)n1 gave CoaBC: 1.737%; Leishmania in macrophages: 13.87%.
O=C(CC1CCCC1)NCCS(=O)(=O)N1CCN(c2ncccn2)CC1 gave CoaBC: 8.549%; Leishmania in macrophages: 0.6828%.
Cc1cc(C[C@@H]2COC[C@H]2NCc2ccc(Br)s2)on1 gave CoaBC: -0.5556%.
O=C(CN1CCCC(Cn2cncn2)C1)NCCc1cccs1 (stereo not drawn) gave CoaBC: -0.2611%; Leishmania in macrophages: 8.172%.
Cn1ccnc1CN1CCC2(CC1)CCN(c1ccccc1)C2=O.O=C(O)C(F)(F)F gave Leishmania in macrophages: 12.68%.
CO[C@H]1C[C@@H](O)C12CCN(C(=O)CCCOc1ccccc1)CC2 gave CoaBC: -0.2427%; Leishmania in macrophages: -15.38%.
OCCC1CN(C2CCC2)CCN1C1CCCC1 (stereo not drawn) gave CoaBC: -5.907%; Leishmania in macrophages: 24.92%.
CN(C)c1cc2c(nn1)CCN(C(=O)Cc1ccc3c(c1)CCO3)C2 gave CoaBC: 7.269%; Leishmania in macrophages: 9.041%.
CC(NC(=O)NCCCN1CCCCCC1=O)c1nncn1C (stereo not drawn) gave CoaBC: 3.571%; Leishmania in macrophages: -9.714%.
CN(C)S(=O)(=O)N1CCCC1CC(=O)c1cccs1 (stereo not drawn) gave CoaBC: 4.904%; Leishmania in macrophages: 20.45%.
Cc1ccc(Cl)c2ccc(NC(CO)CO)nc12 gave CoaBC: -1.222%; Leishmania in macrophages: 28.29%.
Brc1ccc(CNCc2nnc3n2CCCCC3)s1 gave CoaBC: 4.878%.
Fc1cccc(OC2CCN(CCn3cc4ccccc4n3)CC2)c1 gave CoaBC: 5.144%; Leishmania in macrophages: -42.99%.
CCN1CCN(C(=O)c2nc(C)n(-c3ccccc3Cl)n2)CC1 gave CoaBC: 8.514%; Leishmania in macrophages: -2.857%.

Repeated from the top, 3 entries:

SMILES	CoaBC	Leishmania in macrophages
Cc1ccc(-c2ccc(C3CNCCO3)nc2)cc1.Cl (stereo not drawn)	-	15.95 and 24.3
Cc1cc(CN2CCN(C(=O)NC(C)Cn3ccnc3)CC2)no1 (stereo not drawn)	-3.457	19.24
CC(C)NC(=O)C1CN(C(=O)Nc2cccc(F)c2)CC12CCOCC2 (stereo not drawn)	-5.071	7.929